Laboratory results published in patent US20230250139A1 (MIT, published 2023).
No constants are given. Whether binding was seen depends on the method and setting. Some binding calls cover weakened binding; strength is not graded here. Tags and fused reporters may be left off the sequences shown.

Target: UBC-1M3U(D157L,E158L,D161L)-Linker14-HA (Escherichia coli (strain ATCC 8739 / DSM 1576 / NBRC 3972 / NCIMB 8545 / WDCM 00012 / Crooks)) (UniProt B1IQK6)
Test: self-assembly in cultured mouse hippocampal neurons; anti-HA immunofluorescence, confocal

B1: UBC-1M3U(D157L,E158L,D161L)-Linker14-HA (protein)
chain: MKPTTISLLQKYKQEKKRFATITAYDYSFAKLFADEGLNVMLVGDSLGMTVQGHDSTLPVTVADIAYHTAAVRRGAPNCLLLADLPFMAYATPEQAFENAATVMRAGANMVKIEGGEWLVETVQMLTERAVPVCGHLGLTPQSVNIFGGYKVQGRGLLAGLQLLSDALALEAAGAQLLVLECVPVELAKRITEALAIPVIGIGAGNVTDGQILVMHDAFGITGGHIPKFAKNFLAETGDIRAAVRQYMAEVESGVYPGEEHSFHGGSGGTGGSGGTGYPYDVPDYA
binding: binds
